Source: patent publication US11970436B2, “Pharmaceutical compositions comprising monoterpenes” (NEONC Technologies, Inc., priority 2010, dated 2024)
Some results were stated once for a whole list of compounds, not compound by compound. At least one structure is not confirmed: it was looked up by name or label, or the drawing left a doubt.

System: A172 malignant glioma cells
Test: Morphological assay
Type: cell-based, human
Settings: 650 μM or 1.3 mM

C=C(C)[C@@H]1CC=C(CO)CC1 [purified POH, (S)-perillyl alcohol]
time to cytotoxicity activity (cell rounding and detachment from the plate): ≤ 12 h
